Record: PubChem BioAssay AID686937 (Drosophila RNAi Screening Center, 2013)
Screen: 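Knock-downs that reduce output of a secreted reporter enzyme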 (primary screen). System: Drosophila S2 cells expressing secreted horseradish peroxidase. Knock-down reagent: long dsRNA against Drosophila genes. Time to read-out: about 5.5 days (5 days dsRNA, then 12 h reporter induction). Conditions: reporter expression induced after 5 days of dsRNA, read 12 h later; inducer not stated. Read-out: 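After 5 days of dsRNA and 12 h of reporter induction, medium peroxidase read by chemiluminescence and scored as per-plate z-score; higher values mean more reporter released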. Scale: z-score: higher = more reporter secreted into medium.
The deposit covers about 23,000 reagents; shown is a random part of those with a known target gene and a result. 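Reduced-secretion tags in replicate 1 do not always agree with the z-scores; no criterion for assigning the tags was given.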 The numbers tell different reagents against one gene apart. A plus sign joins genes that one reagent is predicted to hit. Further read-outs or replicates are left out here. Reagent sequences are not shown. Not stated in the record: the amount of reagent.

| target gene | reagent | z-score, replicate 1 |
| --- | --- | --- |
| CG13031 | 1 | 0.49 |
| CG43658 | 1 | 0.17 |
| CG43658 | 2 | 0.16 |
| Spase22-23 | 1 | -1.4 |
| CG6966 | 1 | -0.07 |
| CycE | 1 | -1.41 |
| CycE | 2 | -2.4 |
| Fen1 | 1 | -1.55 |
| Psc | 1 | 0.38 |
| mRpL14 | 1 | 0.02 |
| Tmtc2 | 1 | 0.17 |
| Glut1 | 1 | 0.5 |
| Glut1 | 2 | 0.43 |
| Glut1 | 3 | 0.36 |
| Mocs1 | 1 | 0.28 |
| Pex12 | 1 | -0.37 |
| Or65c | 1 | 0.92 |
| Pfdn5 | 1 | 0.16 |
| CG6125 | 1 | 0.34 |
| CG15876 | 1 | 0.28 |
| CG7744 | 1 | 0.36 |
| SWIP | 1 | 0.24 |
| CG10474 | 1 | 0.09 |
| CG9449 | 1 | 0.14 |
| emp | 1 | 0.03 |
| emp | 2 | 0.29 |
| hop | 1 | 0.24 |
| Leash | 1 | 0.04 |
| CG13471 | 1 | -0.07 |

Continued; the last 10 above are carried over.
| target gene | reagent | z-score, replicate 1 |
| --- | --- | --- |
| CG15876 | 1 | 0.28 |
| CG7744 | 1 | 0.36 |
| SWIP | 1 | 0.24 |
| CG10474 | 1 | 0.09 |
| CG9449 | 1 | 0.14 |
| emp | 1 | 0.03 |
| emp | 2 | 0.29 |
| hop | 1 | 0.24 |
| Leash | 1 | 0.04 |
| CG13471 | 1 | -0.07 |
| CG6834 | 1 | 0.14 |
| CG14131 | 1 | -0.58 |
| Pex10 | 1 | 0.33 |
| Pex10 | 2 | -0.28 |
| HPS4 | 1 | 0.27 |
| wun2 | 1 | 0.43 |
| Unc-76 | 1 | 0.2 |
| Unc-76 | 2 | 0.37 |
| Snap25 | 1 | 0.69 |
| Snap25 | 2 | 0.75 |
| Pex19 | 1 | 0.56 |
| CG15696 | 1 | 0.14 |
| thoc5 | 1 | -0.08 |
| asRNA:CR31144 + RpL3 | 1 | -1.87 |
| Mef2 | 1 | 0.39 |
| sug | 1 | -0.01 |
| Pde6 | 1 | 0.27 |
| Pde6 | 2 | 0.09 |
| Pde6 | 3 | 0.22 |
| CG31231 | 1 | -0.13 |
| RabX2 | 1 | 0.11 |
| CG12964 | 1 | -0.58 |
| Ilp1 | 1 | 0.46 |
| CG34452 | 1 | 0.3 |
| CG30187 | 1 | -0.42 |
| Mal-A5 | 1 | 0.55 |
| CG17029 | 1 | 0.48 |
| CG6567 + CG42394 | 1 | -0.14 |
| CG40298 | 1 | 0.65 |
| Cpr92A | 1 | 0.13 |
| CG6304 | 1 | 0.16 |
| Fum4 | 1 | 0.23 |
| CG7900 | 1 | 0.38 |
| CG7900 | 2 | 0.27 |
| CG31463 | 1 | -0.31 |
| Cpr65Av | 1 | 0.37 |
| CR11023 | 1 | 0.26 |
| ham | 1 | 0.5 |
| ham | 2 | 0.01 |
| ham | 3 | 0.24 |
| ham | 4 | 0.07 |
| Elp2 | 1 | 0.29 |
| ND-B12 | 1 | 0.08 |
| CG14744 | 1 | 0.1 |
| puc | 1 | -2.11 |
| Hsp70Bc | 1 | -0.63 |
| gkt + CR31953 | 1 | 0.35 |
| CG13605 | 1 | 0.15 |
| CG40439 | 1 | 0.35 |
| Ugt37C1 | 1 | -5.42 |
| ewg | 1 | 0.37 |
| CG11417 | 1 | -0.11 |
| Suv3 | 1 | 0.24 |
